Test results as given in article PMC5603524, “An alternate mode of oligomerization for E. coli SecA” (Scientific Reports, 2017).
Numbering of substitutions follows the chain as printed. No constants are given. Whether binding was seen depends on the method and setting.

Assays:
SecA-N68∆NC (E. coli) [1] = biological target: SecA-N68∆NC (E. coli) (UniProt P10408); experiment: SEC; analytical gel filtration, Superdex 200 HR 10/30, 50 mM Tris-HCl pH 7.5, 100 mM KCl, 1 mM EDTA, 5 mM MgCl2, 5 mM β-mercaptoethanol, room temperature; H6-SecA-N68 applied at up to 4 mg/mL, SecA-N68∆NC at 10 mg/mL; both purified
SecA-N68∆NC (E. coli) [2] = biological target: SecA-N68∆NC (E. coli) (UniProt P10408); experiment: AUC; sedimentation velocity, 20 °C, 50 mM Tris-HCl pH 7.5, 100 mM KCl, 2 mM EDTA, 5 mM MgCl2, 5 mM TCEP-HCl; SedFit analysis at a range of concentrations; both purified
SecA-N68ΔNC-ER (E. coli) = SecA-N68ΔNC-ER (E. coli) (UniProt P10408); experiment: crystal structure; SecA-N68∆NC with entropy-reducing mutations, bound to Mg2+-ADP; 0.1 M Tris-HCl pH 8.0, 18% PEG 3000, 0.9% cadaverine, 25 °C; space group P21; both purified

B1: SecA-N68∆NC (domain or fragment, UniProt P10408 15-590)
chain: GADRTLRRMRKVVNIINAMEPEMEKLSDEELKGKTAEFRARLEKGEVLENLIPEAFAVVREASKRVFGMRHFDVQLLGGMVLNERCIAEMRTGEGKTLTATLPAYLNALTGKGVHVVTVNDYLAQRDAENNRPLFEFLGLTVGINLPGMPAPAKREAYAADITYGTNNEYGFDYLRDNMAFSPEERVQRKLHYALVDEVDSILIDEARTPLIISGPAEDSSEMYKRVNKIIPHLIRQEKEDSETFQGEGHFSVDEKSRQVNLTERGLVLIEELLVKEGIMDEGESLYSPANIMLMHHVTAALRAHALFTRDVDYIVKDGEVIIVDEHTGRTMQGRRWSDGLHQAVEAKEGVQIQNENQTLASITFQNYFRLYEKLAGMTGTADTEAFEFSSIYKLDTVVVPTNRPMIRKDLPDLVYMTEAEKIQAIIEDIKERTAKGQPVLVGTISIEKSELVSNELTKAGIKHNVLNAKFHANEAAIVAQAGYPAAVTIATNMAGRGTDIVLGGSWQAEVAALENPTAEQIEKIKADWQVRHDAVLEAGGLHIIGTERHESRRIDNQLRGRSGRQGDAGSSRFYLSM
binding (SecA-N68∆NC (E. coli) [1]): no binding (tested: 10 mg/mL) | binding (SecA-N68∆NC (E. coli) [2]): no binding (tested: 4.0 mg/mL)

B2: SecA-N68ΔNC-ER (domain or fragment, UniProt P10408 15-590)
chain: B1 chain with E43A, K44A, E46A, E184A, E185A
binding (SecA-N68ΔNC-ER (E. coli)): no binding
